Laboratory results published in patent US20180369403A1 (University of Texas, published 2018).
These are yes or no findings as the source states them, for the method shown. Some entries that bind do so weakly or less than the wild type.

Sequences of proteins named here, by UniProt entry; tags and fusion partners are left off. Residues count along the entry.
UniProt Q9BXB1, residues 25-544: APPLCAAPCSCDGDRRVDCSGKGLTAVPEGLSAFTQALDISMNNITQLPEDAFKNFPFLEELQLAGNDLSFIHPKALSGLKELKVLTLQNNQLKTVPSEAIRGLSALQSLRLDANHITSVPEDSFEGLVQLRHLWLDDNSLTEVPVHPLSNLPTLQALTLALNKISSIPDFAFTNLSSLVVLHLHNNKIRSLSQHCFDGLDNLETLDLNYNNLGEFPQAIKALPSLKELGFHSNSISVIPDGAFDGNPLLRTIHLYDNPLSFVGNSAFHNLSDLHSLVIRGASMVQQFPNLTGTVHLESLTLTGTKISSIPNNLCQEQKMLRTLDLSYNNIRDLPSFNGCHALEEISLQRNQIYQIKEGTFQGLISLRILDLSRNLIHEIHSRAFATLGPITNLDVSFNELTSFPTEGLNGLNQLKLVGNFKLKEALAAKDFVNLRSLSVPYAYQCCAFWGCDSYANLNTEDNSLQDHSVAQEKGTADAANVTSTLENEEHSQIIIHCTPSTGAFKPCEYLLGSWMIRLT

Target: LGR4-ECD (UniProt Q9BXB1)
Test: competition of 8D2 uptake in A549 cells by soluble LGR4-ECD

- binding: binds
B1: anti-LGR4 monoclonal antibody 8D2 (antibody, V domains shown)
VH: QVQLQQSGAELVKPGASVNLSCKTSGYTFSTSYMSWFKQIPGQTIEWVGLIYVGAGGPTYNQKFKGKASLTVDTSSSTAYMDLSSLTAEDSAVYFCARVRGYAMDAWGQGTSVTVSS
VL: DIVLTQSPATLSVTPGESVSLSCRASQDISTSIHWYQQKSNESPRLLIKYASQSISGIPSRFSGGGSGTDFTLTINRVESEDFSVYYCQQSYSLPVTFGSGTKLELKR
notes: also called mAb 8D2; LGR4-mAb-8D2
